No constants are given. Whether binding was seen depends on the method and setting. Binding seen in cells or lysates may run through a third protein. Some results given as binding are weak or reduced against the parent protein; the word gives no strength.
Target: fatty acid transport protein FAT/CD36 (rat (endogenous in rat heart)) (UniProt Q07969)
Test: co-IP; FAT/CD36 immunoprecipitated with anti-CD36 (sc-9154) and protein A agarose overnight at 4°C from rat heart whole tissue and membrane fraction lysates (1000 µg protein); washes in PBS with 1% NP-40, then PBS; OGT immunoblot (DM-17); hearts perfused with glucosamine and O-GlcNAcase inhibition

Amino acid sequences for entries named in this document (tags omitted).
UniProt Q07969: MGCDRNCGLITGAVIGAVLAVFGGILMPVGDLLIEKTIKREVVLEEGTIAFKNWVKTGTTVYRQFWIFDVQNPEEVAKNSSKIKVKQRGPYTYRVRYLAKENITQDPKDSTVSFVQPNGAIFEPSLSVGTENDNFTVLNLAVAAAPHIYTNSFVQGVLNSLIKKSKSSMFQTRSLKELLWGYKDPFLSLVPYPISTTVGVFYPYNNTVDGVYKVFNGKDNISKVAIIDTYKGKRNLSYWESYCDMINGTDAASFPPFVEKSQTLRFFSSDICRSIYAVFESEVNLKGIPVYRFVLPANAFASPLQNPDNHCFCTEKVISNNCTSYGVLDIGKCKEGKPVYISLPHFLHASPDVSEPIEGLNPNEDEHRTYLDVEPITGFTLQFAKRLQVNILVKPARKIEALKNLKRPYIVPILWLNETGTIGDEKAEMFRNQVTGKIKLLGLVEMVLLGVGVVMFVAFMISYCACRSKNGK

B1: O-GlcNAc transferase (OGT) (enzyme, UniProt P56558 1-1036)
chain: MASSVGNVADSTGLAELAHREYQAGDFEAAERHCMQLWRQEPDNTGVLLLLSSIHFQCRRLDRSAHFSTLAIKQNPLLAEAYSNLGNVYKERGQLQEAIEHYRHALRLKPDFIDGYINLAAALVAAGDMEGAVQAYVSALQYNPDLYCVRSDLGNLLKALGRLEEAKACYLKAIETQPNFAVAWSNLGCVFNAQGEIWLAIHHFEKAVTLDPNFLDAYINLGNVLKEARIFDRAVAAYLRALSLSPNHAVVHGNLACVYYEQGLIDLAIDTYRRAIELQPHFPDAYCNLANALKEKGSVAEAEDCYNTALRLCPTHADSLNNLANIKREQGNIEEAVRLYRKALEVFPEFAAAHSNLASVLQQQGKLQEALMHYKEAIRISPTFADAYSNMGNTLKEMQDVQGALQCYTRAIQINPAFADAHSNLASIHKDSGNIPEAIASYRTALKLKPDFPDAYCNLAHCLQIVCDWTDYDERMKKLVSIVAEQLEKNRLPSVHPHHSMLYPLSHGFRKAIAERHGNLCLDKINVLHKPPYEHPKDLKLSDGRLRVGYVSSDFGNHPTSHLMQSIPGMHNPDKFEVFCYALSPDDGTNFRVKVMAEANHFIDLSQIPCNGKAADRIHQDGIHILVNMNGYTKGARNELFALRPAPIQAMWLGYPGTSGALFMDYIITDQETSPAEVAEQYSEKLAYMPHTFFIGDHANMFPHLKKKAVIDFKSNGHIYDNRIVLNGIDLKAFLDSLPDVKIVKMKCPDGGDNADTTNTALNMPVIPMNTIAEAVIEMINRGQIQITINGFSISNGLATTQINNKAATGEEVPRTIIVTTRSQYGLPEDAIVYCNFNQLYKIDPSTLQMGANILKRVPNSVLWLLRFPAVGEPNIQQYAQNMGLPQNRIIFSPVAPKEEHVRRGQLADVCLDTPLCNGHTTGMDVLWAGTPMVTMPGETLASRVAASQLTCLGCLELIAKSRQEYEDIAVKLGTDLEYLKKIRGKVWKQRISSPLFNTKQYTMELERLYLQMWEHYAAGNKPDHMIKPVEVTESA
With B1 the binding was “binds”.

Source: paper PMC3073970
